Laboratory results taken from patent US20110306561A1, “COMPLEMENT C3a DERIVED DIMERIC PEPTIDES AND USES THEREOF” (Yeda Research And Devlopment Co. Ltd., priority 2009, published 2011).
At least one peptide structure holds a part that was inferred or is arguable (an end, a ring closure or a residue). For some assays here: For at least one compound, name, drawing or mass did not settle the structure. Some compounds share one wording; it may come from a single statement. Residues, ends and D or L forms follow the SMILES beside them. No end group written: not given here.

Assays:
[1] = Circular dichroism (CD) measurement of ordered structure; type: physicochemical; conditions: for Circular Dichroism: 100 μg/ml in PBS, room temperature, CD+/CD− not defined; for Beta-like structure / circular dichroism (in words): FIGS. 1A-D
Description: In order to assess possible structural features that characterize the active peptides, CD measurement were carried out. The CD measurements were performed on an Applied Photophysics spetrometer in 1 mm light path cell, at room temperature (about 25° C.). The peptides stock solutions were usually of 5 mg/ml in water and the measurements were done at a 100 μg/ml dilution in PBS.

[2] = test system: passive systemic anaphylaxis; test: Passive systemic anaphylaxis, blood histamine after antigen challenge; type: in vivo, mice; conditions: 20 μl of peptide solution dripped into the nose, 10 min before antigen challenge
RBL-2H3 cells = type: cell-based, rat; conditions: suboptimal DNP11-BSA antigen stimulus, β-hexosaminidase
Description: Mediator secretion by the rat mucosal mast cells, RBL-2H3-line, in response to stimulation by FcεRI clustering was monitored by measuring the activity of the secreted granular enzyme β-hexosaminidase. To this end, a monoclonal DNP-specific murine IgE-class antibody (rat clone 95.3, 1:10^3 dilution) was added to 15×10^6 cells in 10 ml DMEM and incubated in 96 well plates (100 μl suspension/well) for 2 hours. […] To study the effect of the peptides on antigen-induced response, RBL-2H3 cells were pre-incubated with various concentrations of the peptides for 5 minutes at room temperature before the antigen was added at the pre-determined suboptimal dose. […] The reaction was terminated by the addition of 150 μl of 0.2 M glycine, pH 10.7, and the optical density of the samples was measured at 405 nm. […] The total enzyme content of the cells/well (following lysis by triton-x-100) and the spontaneous enzyme release of the cells/well was measured in each experiment. All experiments were performed in triplicate and the results were calculated as net secreted enzyme activity (as fraction or percentage of total cell-content) in response to the stimulus.

human basophils = test: Activation of human basophils (FLOW-CAST, CD63 expression by flow cytometry); type: cell-based; conditions: CD63 expression after FcεRI clustering

Molecule	Circular Dichroism [1]	Inhibition of secretion of 3H2 of RBL cells (IC50) (RBL-2H3 cells)	Beta-like structure / circular dichroism (in words) [1]	Suppression of passive systemic anaphylaxix (histamine levels Mice blood) [2]	Inhibition of degranulation of human basophils (human basophils)
CC[C@H](C)[C@H](NC(=O)[C@H](Cc1ccc(O)cc1)NC(=O)[C@H](CC(N)=O)NC(=O)[C@H](CO)NC(=O)[C@H](CSSC[C@H](NC(=O)[C@@H](N)CC(=O)O)C(=O)N[C@@H](CO)C(=O)N[C@@H](CC(N)=O)C(=O)N[C@@H](Cc1ccc(O)cc1)C(=O)N[C@H](C(=O)N[C@H](C(=O)N[C@@H](CCCNC(=N)N)C(=O)O)[C@@H](C)O)[C@@H](C)CC)NC(=O)[C@@H](N)CC(=O)O)C(=O)N[C@H](C(=O)N[C@@H](CCCNC(=N)N)C(=O)O)[C@@H](C)O [Dimer A (5508)2] (HELM PEPTIDE1{D.C.S.N.Y.I.T.R}|PEPTIDE2{D.C.S.N.Y.I.T.R}$PEPTIDE1,PEPTIDE2,2:R3-2:R3$$$V2.0; N-terminus and C-terminus assumed)	CD+	–	exhibit the indicated amounts of beta-like structure	500 µM	–
CC[C@H](C)[C@H](NC(=O)[C@H](Cc1ccc(O)cc1)NC(=O)[C@H](CC(N)=O)NC(=O)[C@H](CSSC[C@H](NC(=O)[C@H](CO)NC(=O)[C@@H](N)CC(=O)O)C(=O)N[C@@H](CC(N)=O)C(=O)N[C@@H](Cc1ccc(O)cc1)C(=O)N[C@H](C(=O)N[C@H](C(=O)N[C@@H](CCCNC(=N)N)C(=O)O)[C@@H](C)O)[C@@H](C)CC)NC(=O)[C@H](CO)NC(=O)[C@@H](N)CC(=O)O)C(=O)N[C@H](C(=O)N[C@@H](CCCNC(=N)N)C(=O)O)[C@@H](C)O [Dimer B (5513)2] (HELM PEPTIDE1{D.S.C.N.Y.I.T.R}|PEPTIDE2{D.S.C.N.Y.I.T.R}$PEPTIDE1,PEPTIDE2,3:R3-3:R3$$$V2.0; N-terminus and C-terminus assumed)	CD+	–	exhibit the indicated amounts of beta-like structure	500 µM	–
CC[C@H](C)[C@H](NC(=O)[C@H](Cc1ccc(O)cc1)NC(=O)[C@H](CC(N)=O)NC(=O)[C@H](CS)NC(=O)[C@H](CS)NC(=O)[C@@H](N)CC(=O)O)C(=O)N[C@H](C(=O)N[C@@H](CCCNC(=N)N)C(=O)O)[C@@H](C)O [Monomer C3a9, reference compound] (H-DCCNYITR-OH; N-terminus and C-terminus assumed)	–	–	–	500 µM	–

Further lines, with some results ahead:

Circular Dichroism [1]	Inhibition of secretion of 3H2 of RBL cells (IC50) (RBL-2H3 cells)	Molecule	Beta-like structure / circular dichroism (in words) [1]	Suppression of passive systemic anaphylaxix (histamine levels Mice blood) [2]	Inhibition of degranulation of human basophils (human basophils)
CD+	–	DCSNYITR [Monomer A (5508)]	–	500 µM	–
CD−	No	DSCNYITR [Monomer B (5513)]	exhibit the indicated amounts of beta-like structure	500 µM	No
